Experimental data as given in US11246965B2, “Compositions and methods for reducing neointima formation” (University of Georgia Research Foundation, Inc., priority 2013, dated 2022).
“Also recorded” adds a separate entry of the source. At least one compound was matched to its structure with a doubt left.

Experiments:
[1] = tested on: Rat aortic smooth muscle cells (SMCs); experiment: Cell cycle flow cytometry analysis of SMCs; format: cell-based; conditions: SMC; accumulation of cells in G0/G1 phase
PCNA = PCNA expression in cultured SMCs (Western blot); format: cell-based, rat; conditions: SMC, 500 nM CPEC for 24 hours
[2] = tested on: balloon-injured rat carotid arteries; experiment: Re-endothelialization in rat carotid artery balloon injury model (CD31, Evans blue); format: in vivo
Experimental: Rat carotid artery balloon injury was performed using 2F Fogarty arterial embolectomy balloon catheter (Baxter Edwards Healthcare) as described previously (Tulis, Methods Mol. Med., 139:1-30 (2007)). 7, 14 or 60 days later, the balloon-injured arteries were perfused with saline, fixed with 4% paraformaldehyde, embedded in paraffin, and sectioned. Subsequent morphometric analyses were performed in a double-blinded manner. Ten sections that were evenly distributed in the vessel segments were collected for analysis. The sections were stained with modified hematoxylin and eosin or elastica van Gieson (VG) staining. Cross-sectional images were captured with a Nikon microscope (Nikon America Inc). The circumference of the lumen, internal elastic lamina, and external elastic lamina were measured using Image-pro Plus Software. For immunohistochemistry (IHC) staining, sections were rehydrated, blocked with 5% goat serum, permeabilized with 0.01% Triton X-100 in PBS, and incubated with primary antibodies at 4° C. overnight followed by incubation with horseradish peroxidase-conjugated secondary antibody. The sections were counterstained with hematoxylin.
To determine if CTPS1 plays a role in re-endothelialization during vascular remodeling in vivo, CPEC was administered systematically via osmotic pump into rats with balloon-injury or mice with wire-injury in their carotid arteries. […]

[3] = tested on: Rat aortic smooth muscle cells (SMCs); experiment: SMC proliferation (MTT cell proliferation assay); format: cell-based
Experimental: Rat aortic smooth muscle cells (SMCs) were cultured by enzyme-digestion method from rat thoracic aorta as described previously (Hofer, et al., Proc Natl Acad Sci USA., 98:6412-6416 (2001), Marquez, et al., Biochem Pharmacol., 41:1821-1829 (1991), (Berg, et al., Eur. J. Biochem., 216:161-167 (1993)). SMC phenotype of the cultured cells was confirmed by the expression of smooth muscle alpha-actin and SM22-alpha.
(§1) Cell proliferation was evaluated with 3-(4,5-dimethylthiazol-2-yl)-2,5-diphenyltetrazolium (MTT) assay using a TACS MTT Cell Proliferation Assay Kit (Trivegen). The optical density at 570 nm was measured.

NME2 = NME2 expression in arteries undergoing vascular repair (immunohistochemistry); format: in vivo; conditions: injured arteries with CPEC treatment
CDK1 = CDK1 activation (T161 phosphorylation) in SMCs; format: cell-based, rat; conditions: SMC; T161 phosphorylation site
Endothelial cell C166 [4] = experiment: EC proliferation (MTT cell proliferation assay); format: cell-based
Experimental: Endothelial cell C166 was purchased from ATCC and grown at 37° C. in a humidified atmosphere of 5% CO2 in DMEM (Invitrogen) supplemented with 10% FBS.
as §1

[5] = tested on: UCK1, UCK2, CMPK, NME1, NME2; experiment: Expression of salvage pathway enzymes in ECs and SMCs (qPCR, Western blot); format: cell-based
[6] = tested on: balloon-injured rat carotid arteries; experiment: Rat carotid artery balloon injury model, neointima formation; format: in vivo; conditions: for neointima formation: 14 days after injury
[7] = tested on: Rat aortic smooth muscle cells (SMCs); experiment: Wound healing assay, SMC migration; format: cell-based; conditions: CPEC 20 nM, 500 nM (FIG. 3A)
Endothelial cell C166 [8] = experiment: EC migration; format: cell-based; conditions: 500 nM
[9] = tested on: wire-injured mouse carotid artery; experiment: Mouse carotid artery wire injury model, re-endothelialization (Evans Blue); format: in vivo; conditions: 1 mg/kg/day via osmotic pump
Experimental: Mice were anesthetized with ketamine hydrochloride (80 mg/kg IP) and xylazine (5 mg/kg IP), a 0.38-mm flexible angioplasty guidewire was advanced by 1 cm via a transverse arteriotomy of the external carotid artery, and endothelial denudation of the common carotid artery was achieved by 3 rotational passes (Werner, et al., Circ. Res., 93:e17-e24 (2003)).
To further establish CTPS function in re-endothelialization after vascular injury, the endothelial denudation and re-endothelialization was tested in a different model, i.e., mouse wire-injury model. […] Systematic administration of CPEC was achieved via osmotic pump (1 mg/kg/day). Re-endothelialization in mouse arteries occurred rapidly following injury (FIG. 6B). 5 days after injury, re-endothelialization was completed, consistent with the previous reports (Hagensen, et al., Cardiovasc Res., 93:223-231 (2012)).

[10] = CPEC in the presence of cytidine

**Q.** Nc1ccn([C@@H]2C=C(CO)[C@@H](O)[C@H]2O)c(=O)n1 [CPEC, cyclopentenyl cytosine] was tested. Which cell cycle progression [1] did it give?
**A.** significantly blocked the cell cycle progression

**Q.** What about the PCNA expression (PCNA) of the same molecule?
**A.** dramatically suppressed

**Q.** And the “PCNA expression in CD31-positive cells” value ([2]; 1 mg/kg/day)?
**A.** strongly expressed

**Q.** What about the “re-endothelialization (EC marker CD31)” value ([2]; 1 mg/kg/day via osmotic pump, 14 days after the injury) of the same molecule?
**A.** induced a strong re-endothelialization

**Q.** What about the SMC proliferation ([3]; 500 nM) of the same molecule?
**A.** significantly blocked

**Q.** What about the SMC proliferation ([3]; CPEC 1 nM, 20 nM, 500 nM (FIG. 2A)) of the same molecule?
**A.** significantly suppressed SMC proliferation in a dose dependent manner

**Q.** What about the SMC proliferation ([3]; low dosages of CPEC (<20 nM)) of the same molecule?
**A.** attenuated

**Q.** What about the “NME2 expression in ECs of the arteries” value (NME2) of the same molecule?
**A.** induced a strong NME2 expression

**Q.** What about the “activation of cell cycle regulator CDK1” value (CDK1) of the same molecule?
**A.** dramatically inhibited the activation

**Q.** And the EC proliferation (Endothelial cell C166 [4]; 500 nM)?
**A.** significantly blocked

**Q.** What about the “relative sensitivity of SMCs and ECs (proliferation)” value (Endothelial cell C166 [4]; ECs compared with SMCs) of the same molecule?
**A.** SMCs are more sensitive than ECs

**Q.** And the EC proliferation (Endothelial cell C166 [4]; low dosages of CPEC (<20 nM))?
**A.** not affected

**Q.** What about the “mRNA expression of all the salvage pathway enzymes in ECs” value [5, 10] of the same molecule?
**A.** significantly induced

**Q.** And the “mRNA expression of all the salvage pathway enzymes in SMCs” value [5, 10]?
**A.** not in SMCs

**Q.** And the “expression of NME1 or NME2 in ECs” value ([5]; CPEC treatment alone)?
**A.** did not upregulate

**Q.** What about the “NME, especially NME2, expression in ECs” value ([5]; CPEC with VEGF or PDGF in the presence of cytidine) of the same molecule?
**A.** dramatically up-regulated

**Q.** What about the neointima formation ([6]; 1 mg/kg body weight/day via mini-osmotic pumps) of the same molecule?
**A.** dramatically blocked; also recorded: significantly inhibiting the neointima formation

**Q.** What about the neointima formation ([6]; 2 mg/kg b.w./day via mini-osmotic pumps) of the same molecule?
**A.** completely blocked

**Q.** What about the “PCNA expression (immunohistochemistry)” value ([6]; higher dose (2 mg/kg b.w./day)) of the same molecule?
**A.** completely blocked

**Q.** And the “PCNA expression (immunohistochemistry)” value ([6]; low dose (1 mg/kg body weight/day))?
**A.** dramatically blocked

**Q.** What about the SMC migration [7] of the same molecule?
**A.** inhibited SMC migration in a dose-dependent manner

**Q.** And the EC migration (Endothelial cell C166 [8])?
**A.** no effect on EC migration

**Q.** What about the re-endothelialized area ([9]; 3 days after the injury, compared to saline) of the same molecule?
**A.** larger area that was re-endothelialized

**Q.** And the re-endothelialization ([9]; 5 days after injury)?
**A.** did not delay
